The results in this text go back to doi:10.1101/2025.06.18.660491.

By UniProt entry, the sequences of proteins in these tests, tags left out.
UniProt O15027: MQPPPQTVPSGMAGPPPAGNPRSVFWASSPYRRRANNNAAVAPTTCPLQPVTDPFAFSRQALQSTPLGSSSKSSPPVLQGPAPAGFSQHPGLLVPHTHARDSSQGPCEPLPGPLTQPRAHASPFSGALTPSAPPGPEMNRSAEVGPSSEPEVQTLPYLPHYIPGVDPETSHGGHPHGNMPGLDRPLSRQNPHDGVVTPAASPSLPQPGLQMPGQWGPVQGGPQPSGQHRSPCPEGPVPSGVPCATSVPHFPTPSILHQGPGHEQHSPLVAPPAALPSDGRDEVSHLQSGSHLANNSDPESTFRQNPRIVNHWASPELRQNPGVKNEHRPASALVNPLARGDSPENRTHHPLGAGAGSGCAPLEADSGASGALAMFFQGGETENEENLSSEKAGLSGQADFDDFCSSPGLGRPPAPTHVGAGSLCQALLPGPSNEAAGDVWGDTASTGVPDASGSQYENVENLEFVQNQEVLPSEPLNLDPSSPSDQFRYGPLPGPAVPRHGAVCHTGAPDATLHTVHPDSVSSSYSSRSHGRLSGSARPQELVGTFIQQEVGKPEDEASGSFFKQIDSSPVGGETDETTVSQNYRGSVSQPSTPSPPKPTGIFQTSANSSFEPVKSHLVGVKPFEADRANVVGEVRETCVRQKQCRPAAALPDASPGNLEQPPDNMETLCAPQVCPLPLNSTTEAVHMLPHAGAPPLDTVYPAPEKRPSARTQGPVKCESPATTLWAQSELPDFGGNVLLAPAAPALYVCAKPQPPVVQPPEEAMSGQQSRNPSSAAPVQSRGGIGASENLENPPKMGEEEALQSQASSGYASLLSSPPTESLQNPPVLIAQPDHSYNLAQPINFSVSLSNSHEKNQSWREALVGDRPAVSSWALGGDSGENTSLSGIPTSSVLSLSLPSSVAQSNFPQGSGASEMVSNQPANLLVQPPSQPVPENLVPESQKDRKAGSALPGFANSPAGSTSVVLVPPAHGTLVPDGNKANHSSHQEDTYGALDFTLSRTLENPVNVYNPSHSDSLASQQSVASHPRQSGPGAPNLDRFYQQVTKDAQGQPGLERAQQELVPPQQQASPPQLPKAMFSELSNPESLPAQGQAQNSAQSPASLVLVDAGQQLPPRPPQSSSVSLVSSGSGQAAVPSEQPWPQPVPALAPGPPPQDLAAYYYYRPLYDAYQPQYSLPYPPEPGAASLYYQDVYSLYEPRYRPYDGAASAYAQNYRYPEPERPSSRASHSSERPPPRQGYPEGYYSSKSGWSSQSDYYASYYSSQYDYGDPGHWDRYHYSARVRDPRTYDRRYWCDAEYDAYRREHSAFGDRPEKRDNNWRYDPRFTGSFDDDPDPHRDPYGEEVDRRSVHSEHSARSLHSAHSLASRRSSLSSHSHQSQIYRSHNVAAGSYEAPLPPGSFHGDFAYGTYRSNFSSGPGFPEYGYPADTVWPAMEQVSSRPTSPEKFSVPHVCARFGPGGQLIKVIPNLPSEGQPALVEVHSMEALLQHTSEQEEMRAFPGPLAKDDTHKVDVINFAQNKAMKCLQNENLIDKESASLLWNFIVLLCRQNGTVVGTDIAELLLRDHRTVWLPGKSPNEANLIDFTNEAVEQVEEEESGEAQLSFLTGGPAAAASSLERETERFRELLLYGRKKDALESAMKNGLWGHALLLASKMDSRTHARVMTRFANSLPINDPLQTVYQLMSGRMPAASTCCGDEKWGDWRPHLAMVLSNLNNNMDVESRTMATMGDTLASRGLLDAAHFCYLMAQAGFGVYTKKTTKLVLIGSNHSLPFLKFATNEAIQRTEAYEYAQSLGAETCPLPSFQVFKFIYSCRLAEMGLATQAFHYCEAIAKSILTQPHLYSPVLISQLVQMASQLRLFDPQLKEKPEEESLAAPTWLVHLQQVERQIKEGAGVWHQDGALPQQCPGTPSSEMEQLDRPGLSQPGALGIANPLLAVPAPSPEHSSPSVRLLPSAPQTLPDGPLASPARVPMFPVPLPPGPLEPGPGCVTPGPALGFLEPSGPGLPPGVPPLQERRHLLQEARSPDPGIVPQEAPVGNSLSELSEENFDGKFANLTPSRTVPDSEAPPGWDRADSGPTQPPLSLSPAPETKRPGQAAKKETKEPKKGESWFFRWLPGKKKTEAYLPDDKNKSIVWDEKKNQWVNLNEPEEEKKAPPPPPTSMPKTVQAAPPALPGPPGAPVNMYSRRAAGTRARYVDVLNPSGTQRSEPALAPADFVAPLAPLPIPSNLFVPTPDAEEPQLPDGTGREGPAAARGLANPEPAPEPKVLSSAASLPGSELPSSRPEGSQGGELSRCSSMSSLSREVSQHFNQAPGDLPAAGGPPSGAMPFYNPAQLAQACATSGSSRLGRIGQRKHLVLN

These are yes or no findings as the source states them, for the method shown. Binding seen in cells or lysates may run through a third protein. A yes stands for co-enrichment or nearness to the bait. Other partners may have been found.

For test [1], the target named is FLAG-Sec16 (human). Kind of test: affinity purification with mass spectrometry.
Test [2] deals with endogenous full-length Sec16 (human (endogenous in HeLa)) (UniProt O15027). The experiment in a line: affinity purification with mass spectrometry.
Test [3] concerns the target T1, TurboID-Sec13 (UniProt P55735).
T1 sequence: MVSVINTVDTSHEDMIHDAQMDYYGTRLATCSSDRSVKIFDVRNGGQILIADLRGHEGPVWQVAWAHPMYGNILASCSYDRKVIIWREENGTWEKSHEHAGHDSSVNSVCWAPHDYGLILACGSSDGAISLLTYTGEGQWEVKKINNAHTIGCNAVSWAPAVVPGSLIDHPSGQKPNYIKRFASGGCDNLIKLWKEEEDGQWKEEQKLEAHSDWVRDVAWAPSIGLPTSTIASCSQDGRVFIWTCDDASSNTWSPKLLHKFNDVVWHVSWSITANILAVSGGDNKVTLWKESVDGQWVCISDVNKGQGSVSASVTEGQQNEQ
The experiment in a line: proximity labelling.

The target of test [4] is T2, TurboID-Sec13, P55735.
T2 chain: T1 sequence
The experiment in a line: proximity labelling. To be noted: remark: other sources report otherwise.

B1: Sec24A (protein, UniProt O95486 1-1093)
chain: MSQPGIPASGGAPASLQAQNGAALASGSPYTNGPVQNALLSSQESVSQGYNFQLPGSYPHPIPAKTLNPVSGQSNYGGSQGSGQTLNRPPVASNPVTPSLHSGPAPRMPLPASQNPATTPMPSSSFLPEANLPPPLNWQYNYPSTASQTNHCPRASSQPTVSGNTSLTTNHQYVSSGYPSLQNSFIKSGPSVPPLVNPPLPTTFQPGAPHGPPPAGGPPPVRALTPLTSSYRDVPQPLFNSAVNQEGITSNTNNGSMVVHSSYDEIEGGGLLATPQLTNKNPKMSRSVGYSYPSLPPGYQNTTPPGATGVPPSSLNYPSGPQAFTQTPLGANHLTTSMSGLSLQPEGLRVVNLLQERNMLPSTPLKPPVPNLHEDIQKLNCNPELFRCTLTSIPQTQALLNKAKLPLGLLLHPFKDLVQLPVVTSSTIVRCRSCRTYINPFVSFLDQRRWKCNLCYRVNDVPEEFLYNPLTRVYGEPHRRPEVQNATIEFMAPSEYMLRPPQPPVYLFVFDVSHNAVETGYLNSVCQSLLDNLDLLPGNTRTKIGFITFDSTIHFYGLQESLSQPQMLIVSDIEDVFIPMPENLLVNLNESKELVQDLLKTLPQMFTKTLETQSALGPALQAAFKLMSPTGGRMSVFQTQLPTLGVGALKPREEPNHRSSAKDIHMTPSTDFYKKLALDCSGQQVAVDLFLLSGQYSDLASLGCISRYSAGSVYYYPSYHHQHNPVQVQKLQKELQRYLTRKIGFEAVMRIRCTKGLSIHTFHGNFFVRSTDLLSLPNVNPDAGYAVQMSVEESLTDTQLVSFQSALLYTSSKGERRIRVHTLCLPVVSTLNDVFLGADVQAISGLLANMAVDRSMTASLSDARDALVNAVIDSLSAYRSSVLSNQQPGLMVPFSLRLFPLFVLALLKQKSFQTGTNARLDERIFAMCQVKNQPLVYLMLTTHPSLYRVDNLSDEGALNISDRTIPQPPILQLSVEKLSRDGAFLMDAGSVLMLWVGKNCTQNFLSQVLGVQNYASIPQPMTDLPELDTPESARIIAFISWLREQRPFFPILYVIRDESPMKANFLQNMIEDRTESALSYYEFLLHIQQQVNK
B1: the binding result in test [1], in test [2] and in test [3] was “binds” in each case.

B2: Sec23B, Q15437 1-767 (protein)
chain: MATYLEFIQQNEERDGVRFSWNVWPSSRLEATRMVVPLACLLTPLKERPDLPPVQYEPVLCSRPTCKAVLNPLCQVDYRAKLWACNFCFQRNQFPPAYGGISEVNQPAELMPQFSTIEYVIQRGAQSPLIFLYVVDTCLEEDDLQALKESLQMSLSLLPPDALVGLITFGRMVQVHELSCEGISKSYVFRGTKDLTAKQIQDMLGLTKPAMPMQQARPAQPQEHPFASSRFLQPVHKIDMNLTDLLGELQRDPWPVTQGKRPLRSTGVALSIAVGLLEGTFPNTGARIMLFTGGPPTQGPGMVVGDELKIPIRSWHDIEKDNARFMKKATKHYEMLANRTAANGHCIDIYACALDQTGLLEMKCCANLTGGYMVMGDSFNTSLFKQTFQRIFTKDFNGDFRMAFGATLDVKTSRELKIAGAIGPCVSLNVKGPCVSENELGVGGTSQWKICGLDPTSTLGIYFEVVNQHNTPIPQGGRGAIQFVTHYQHSSTQRRIRVTTIARNWADVQSQLRHIEAAFDQEAAAVLMARLGVFRAESEEGPDVLRWLDRQLIRLCQKFGQYNKEDPTSFRLSDSFSLYPQFMFHLRRSPFLQVFNNSPDESSYYRHHFARQDLTQSLIMIQPILYSYSFHGPPEPVLLDSSSILADRILLMDTFFQIVIYLGETIAQWRKAGYQDMPEYENFKHLLQAPLDDAQEILQARFPMPRYINTEHGGSQARFLLSKVNPSQTHNNLYAWGQETGAPILTDDVSLQVFMDHLKKLAVSSAC
As for B2, the binding result in test [4] is listed as “binds”.

B3: Sec24B (protein, UniProt O95487 1-1268)
chain: MSAPAGSSHPAASARIPPKFGGAAVSGAAAPAGPGAGPAPHQQNGPAQNQMQVPSGYGLHHQNYIAPSGHYSQGPGKMTSLPLDTQCGDYYSALYTVPTQNVTPNTVNQQPGAQQLYSRGPPAPHIVGSTLGSFQGAASSASHLHTSASQPYSSFVNHYNSPAMYSASSSVASQGFPSTCGHYAMSTVSNAAYPSVSYPSLPAGDTYGQMFTSQNAPTVRPVKDNSFSGQNTAISHPSPLPPLPSQQHHQQQSLSGYSTLTWSSPGLPSTQDNLIRNHTGSLAVANNNPTITVADSLSCPVMQNVQPPKSSPVVSTVLSGSSGSSSTRTPPTANHPVEPVTSVTQPSELLQQKGVQYGEYVNNQASSAPTPLSSTSDDEEEEEEDEEAGVDSSSTTSSASPMPNSYDALEGGSYPDMLSSSASSPAPDPAPEPDPASAPAPASAPAPVVPQPSKMAKPFGYGYPTLQPGYQNATAPLISGVQPSNPVYSGFQQYPQQYPGVNQLSSSIGGLSLQSSPQPESLRPVNLTQERNILPMTPVWAPVPNLNADLKKLNCSPDSFRCTLTNIPQTQALLNKAKLPLGLLLHPFRDLTQLPVITSNTIVRCRSCRTYINPFVSFIDQRRWKCNLCYRVNDVPEEFMYNPLTRSYGEPHKRPEVQNSTVEFIASSDYMLRPPQPAVYLFVLDVSHNAVEAGYLTILCQSLLENLDKLPGDSRTRIGFMTFDSTIHFYNLQEGLSQPQMLIVSDIDDVFLPTPDSLLVNLYESKELIKDLLNALPNMFTNTRETHSALGPALQAAFKLMSPTGGRVSVFQTQLPSLGAGLLQSREDPNQRSSTKVVQHLGPATDFYKKLALDCSGQQTAVDLFLLSSQYSDLASLACMSKYSAGCIYYYPSFHYTHNPSQAEKLQKDLKRYLTRKIGFEAVMRIRCTKGLSMHTFHGNFFVRSTDLLSLANINPDAGFAVQLSIEESLTDTSLVCFQTALLYTSSKGERRIRVHTLCLPVVSSLADVYAGVDVQAAICLLANMAVDRSVSSSLSDARDALVNAVVDSLSAYGSTVSNLQHSALMAPSSLKLFPLYVLALLKQKAFRTGTSTRLDDRVYAMCQIKSQPLVHLMKMIHPNLYRIDRLTDEGAVHVNDRIVPQPPLQKLSAEKLTREGAFLMDCGSVFYIWVGKGCDNNFIEDVLGYTNFASIPQKMTHLPELDTLSSERARSFITWLRDSRPLSPILHIVKDESPAKAEFFQHLIEDRTEAAFSYYEFLLHVQQQICK
As for B3, the binding result in test [1] and in test [2] was “binds” in each case.

B4: Sec24B, O95487 1-1268 (protein)
chain: B3 chain
B4: in test [4], the binding entry is on record as “binds”.
